Experimental data from paper PMC12714281.
No constants are given. Whether binding was seen depends on the method and setting. Binding seen in cells or lysates may run through a third protein. Here binding means that the protein was enriched with, or labelled near, the bait; the list need not be complete. Where a sequence is shown, tags or fusion partners need not be part of it. Blank lines part the entries; values can stand above or below the molecule they belong to.

Protein sequences, listed by entry. Tags and fused reporters are not part of them. Residues count along the entry.
UniProt Q03135: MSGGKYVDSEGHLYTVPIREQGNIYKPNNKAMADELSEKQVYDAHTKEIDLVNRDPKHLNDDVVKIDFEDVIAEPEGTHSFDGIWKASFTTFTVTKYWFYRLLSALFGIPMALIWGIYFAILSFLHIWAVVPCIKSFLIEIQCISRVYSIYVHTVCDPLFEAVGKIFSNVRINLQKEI
UniProt P04114, residues 28-4563: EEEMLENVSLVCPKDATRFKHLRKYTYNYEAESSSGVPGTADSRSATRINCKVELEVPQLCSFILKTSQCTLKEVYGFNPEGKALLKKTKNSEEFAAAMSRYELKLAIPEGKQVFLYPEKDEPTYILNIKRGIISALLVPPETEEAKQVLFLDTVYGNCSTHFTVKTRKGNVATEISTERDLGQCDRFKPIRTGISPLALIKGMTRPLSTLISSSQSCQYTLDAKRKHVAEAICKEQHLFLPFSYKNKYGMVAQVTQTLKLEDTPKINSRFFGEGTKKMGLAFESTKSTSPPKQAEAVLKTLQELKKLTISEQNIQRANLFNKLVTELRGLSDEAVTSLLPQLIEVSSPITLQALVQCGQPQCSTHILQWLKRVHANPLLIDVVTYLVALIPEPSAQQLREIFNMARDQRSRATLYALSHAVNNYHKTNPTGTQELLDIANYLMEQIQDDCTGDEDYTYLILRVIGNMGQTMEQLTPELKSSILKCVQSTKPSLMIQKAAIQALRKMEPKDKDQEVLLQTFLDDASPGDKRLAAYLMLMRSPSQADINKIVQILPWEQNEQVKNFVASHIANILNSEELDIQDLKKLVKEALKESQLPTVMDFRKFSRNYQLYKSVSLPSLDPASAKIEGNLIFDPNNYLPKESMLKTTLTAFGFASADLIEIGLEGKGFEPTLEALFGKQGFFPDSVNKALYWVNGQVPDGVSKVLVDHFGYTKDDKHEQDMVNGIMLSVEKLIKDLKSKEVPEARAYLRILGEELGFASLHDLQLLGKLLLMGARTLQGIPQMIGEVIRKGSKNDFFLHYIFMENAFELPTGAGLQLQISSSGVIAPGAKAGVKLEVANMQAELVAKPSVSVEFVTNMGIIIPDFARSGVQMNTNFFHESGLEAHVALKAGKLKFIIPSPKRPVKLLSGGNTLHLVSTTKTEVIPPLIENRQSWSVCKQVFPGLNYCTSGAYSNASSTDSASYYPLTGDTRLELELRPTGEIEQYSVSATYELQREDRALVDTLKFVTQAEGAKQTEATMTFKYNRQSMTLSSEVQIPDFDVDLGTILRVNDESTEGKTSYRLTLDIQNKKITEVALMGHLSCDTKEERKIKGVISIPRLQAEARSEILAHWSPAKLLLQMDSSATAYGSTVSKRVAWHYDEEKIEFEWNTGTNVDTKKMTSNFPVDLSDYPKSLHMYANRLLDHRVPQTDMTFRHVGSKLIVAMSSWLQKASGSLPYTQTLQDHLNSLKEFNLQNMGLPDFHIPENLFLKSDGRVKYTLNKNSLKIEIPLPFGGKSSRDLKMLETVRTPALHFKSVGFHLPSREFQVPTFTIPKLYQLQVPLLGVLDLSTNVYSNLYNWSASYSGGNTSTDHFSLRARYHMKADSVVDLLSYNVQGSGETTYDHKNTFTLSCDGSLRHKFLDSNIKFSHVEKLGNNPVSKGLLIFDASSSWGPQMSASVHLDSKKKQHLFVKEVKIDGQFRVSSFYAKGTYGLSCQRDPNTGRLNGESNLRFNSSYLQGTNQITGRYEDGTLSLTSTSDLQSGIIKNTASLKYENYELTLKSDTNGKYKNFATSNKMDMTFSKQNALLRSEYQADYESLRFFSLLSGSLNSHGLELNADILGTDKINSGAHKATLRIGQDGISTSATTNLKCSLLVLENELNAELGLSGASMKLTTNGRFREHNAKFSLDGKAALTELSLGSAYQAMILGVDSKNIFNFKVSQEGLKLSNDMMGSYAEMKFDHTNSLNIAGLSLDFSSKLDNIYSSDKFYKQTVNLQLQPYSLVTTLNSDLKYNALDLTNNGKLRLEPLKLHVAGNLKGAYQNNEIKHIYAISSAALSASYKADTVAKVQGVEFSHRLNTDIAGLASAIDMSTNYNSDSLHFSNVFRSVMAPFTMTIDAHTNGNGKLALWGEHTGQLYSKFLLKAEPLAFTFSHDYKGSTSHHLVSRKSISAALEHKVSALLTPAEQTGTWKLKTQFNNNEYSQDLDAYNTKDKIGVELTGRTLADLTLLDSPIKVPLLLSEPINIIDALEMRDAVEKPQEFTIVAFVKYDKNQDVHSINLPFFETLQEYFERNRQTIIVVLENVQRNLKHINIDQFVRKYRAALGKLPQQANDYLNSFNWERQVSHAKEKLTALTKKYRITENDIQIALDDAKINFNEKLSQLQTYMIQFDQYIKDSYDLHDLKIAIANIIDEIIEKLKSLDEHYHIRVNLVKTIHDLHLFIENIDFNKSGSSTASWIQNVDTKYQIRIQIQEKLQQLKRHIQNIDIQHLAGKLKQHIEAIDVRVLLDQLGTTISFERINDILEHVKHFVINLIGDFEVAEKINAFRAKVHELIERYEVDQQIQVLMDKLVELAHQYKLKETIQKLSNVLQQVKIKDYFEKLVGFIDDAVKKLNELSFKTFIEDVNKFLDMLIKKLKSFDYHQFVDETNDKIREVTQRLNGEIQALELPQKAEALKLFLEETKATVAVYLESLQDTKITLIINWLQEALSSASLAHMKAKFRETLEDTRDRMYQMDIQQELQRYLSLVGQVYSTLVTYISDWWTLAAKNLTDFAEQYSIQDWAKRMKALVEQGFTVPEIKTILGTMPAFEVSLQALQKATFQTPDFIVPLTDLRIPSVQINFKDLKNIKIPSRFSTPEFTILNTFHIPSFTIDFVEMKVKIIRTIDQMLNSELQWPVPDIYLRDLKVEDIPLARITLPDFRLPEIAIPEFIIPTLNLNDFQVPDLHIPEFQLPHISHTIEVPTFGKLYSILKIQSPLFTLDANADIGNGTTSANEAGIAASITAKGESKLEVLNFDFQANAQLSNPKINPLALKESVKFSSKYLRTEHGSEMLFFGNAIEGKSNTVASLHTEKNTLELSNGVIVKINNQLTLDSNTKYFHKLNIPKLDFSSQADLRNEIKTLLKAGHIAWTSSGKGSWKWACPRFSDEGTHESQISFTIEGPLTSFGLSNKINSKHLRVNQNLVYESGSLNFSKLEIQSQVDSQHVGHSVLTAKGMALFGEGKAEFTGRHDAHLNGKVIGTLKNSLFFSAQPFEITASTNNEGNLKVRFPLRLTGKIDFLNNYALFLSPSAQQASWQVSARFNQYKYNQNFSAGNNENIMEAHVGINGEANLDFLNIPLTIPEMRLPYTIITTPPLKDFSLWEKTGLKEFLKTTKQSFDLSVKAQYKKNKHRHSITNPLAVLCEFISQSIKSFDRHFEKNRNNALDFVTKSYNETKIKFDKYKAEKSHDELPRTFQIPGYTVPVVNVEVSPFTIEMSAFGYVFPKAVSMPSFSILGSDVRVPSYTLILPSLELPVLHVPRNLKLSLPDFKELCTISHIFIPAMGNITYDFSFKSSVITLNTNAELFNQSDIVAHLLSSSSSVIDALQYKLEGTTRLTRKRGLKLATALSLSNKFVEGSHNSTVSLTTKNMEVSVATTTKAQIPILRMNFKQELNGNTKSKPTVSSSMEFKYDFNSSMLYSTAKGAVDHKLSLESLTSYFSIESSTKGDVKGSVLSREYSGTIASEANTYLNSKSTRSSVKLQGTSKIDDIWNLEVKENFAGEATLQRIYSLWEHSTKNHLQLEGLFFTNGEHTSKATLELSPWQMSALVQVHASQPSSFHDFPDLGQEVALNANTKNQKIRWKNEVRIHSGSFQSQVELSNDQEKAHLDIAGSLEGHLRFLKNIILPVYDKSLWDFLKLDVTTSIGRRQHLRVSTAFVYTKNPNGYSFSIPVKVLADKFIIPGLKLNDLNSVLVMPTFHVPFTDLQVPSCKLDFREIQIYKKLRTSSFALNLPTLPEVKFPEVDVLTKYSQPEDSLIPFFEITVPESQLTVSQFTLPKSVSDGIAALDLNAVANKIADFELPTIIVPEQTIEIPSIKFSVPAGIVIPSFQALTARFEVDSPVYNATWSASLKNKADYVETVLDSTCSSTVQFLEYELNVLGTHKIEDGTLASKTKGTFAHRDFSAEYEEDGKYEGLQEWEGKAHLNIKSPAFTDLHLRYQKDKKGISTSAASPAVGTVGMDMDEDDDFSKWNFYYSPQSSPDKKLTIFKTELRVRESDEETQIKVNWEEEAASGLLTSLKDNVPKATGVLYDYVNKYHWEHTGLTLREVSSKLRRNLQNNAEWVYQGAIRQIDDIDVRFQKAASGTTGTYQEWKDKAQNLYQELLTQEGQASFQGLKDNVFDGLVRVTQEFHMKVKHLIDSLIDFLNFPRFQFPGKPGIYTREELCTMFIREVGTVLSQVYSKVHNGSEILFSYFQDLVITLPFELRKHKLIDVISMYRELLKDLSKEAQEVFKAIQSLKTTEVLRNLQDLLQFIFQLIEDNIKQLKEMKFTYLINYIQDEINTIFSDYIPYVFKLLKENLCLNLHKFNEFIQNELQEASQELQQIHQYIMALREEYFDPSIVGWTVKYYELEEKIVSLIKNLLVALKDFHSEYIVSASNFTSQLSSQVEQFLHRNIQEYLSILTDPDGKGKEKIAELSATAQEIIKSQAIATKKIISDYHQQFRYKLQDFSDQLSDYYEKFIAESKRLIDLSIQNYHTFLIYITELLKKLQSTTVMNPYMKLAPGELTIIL
UniProt P48679, residues 1-647: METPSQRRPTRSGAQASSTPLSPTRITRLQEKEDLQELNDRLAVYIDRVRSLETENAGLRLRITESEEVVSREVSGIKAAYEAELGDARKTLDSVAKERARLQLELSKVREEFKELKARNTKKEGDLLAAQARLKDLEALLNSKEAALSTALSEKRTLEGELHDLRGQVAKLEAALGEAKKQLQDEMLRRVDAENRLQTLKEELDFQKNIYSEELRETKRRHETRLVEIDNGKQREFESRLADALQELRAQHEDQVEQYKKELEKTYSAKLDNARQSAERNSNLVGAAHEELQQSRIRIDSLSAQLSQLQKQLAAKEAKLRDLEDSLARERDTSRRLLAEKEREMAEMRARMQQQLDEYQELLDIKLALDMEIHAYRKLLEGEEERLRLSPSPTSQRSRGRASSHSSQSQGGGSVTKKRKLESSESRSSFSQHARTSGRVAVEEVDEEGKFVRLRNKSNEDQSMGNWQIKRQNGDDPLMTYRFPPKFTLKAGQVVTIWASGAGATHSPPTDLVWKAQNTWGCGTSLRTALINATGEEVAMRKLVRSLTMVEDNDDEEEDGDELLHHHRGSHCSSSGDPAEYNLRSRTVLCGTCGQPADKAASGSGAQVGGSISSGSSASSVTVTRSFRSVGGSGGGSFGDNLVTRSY
UniProt P21796: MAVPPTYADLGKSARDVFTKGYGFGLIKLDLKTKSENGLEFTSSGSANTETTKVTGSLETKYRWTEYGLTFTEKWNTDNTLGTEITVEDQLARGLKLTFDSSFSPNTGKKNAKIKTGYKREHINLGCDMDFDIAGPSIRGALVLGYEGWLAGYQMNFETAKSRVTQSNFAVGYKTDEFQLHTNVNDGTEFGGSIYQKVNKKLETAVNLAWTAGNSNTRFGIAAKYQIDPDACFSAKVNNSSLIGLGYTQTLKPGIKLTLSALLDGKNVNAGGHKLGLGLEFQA

Legend:
[1] = target: T1, HA-Flag-TMEM43 wild type (transmembrane protein 43), stably expressed in A549 cells (UniProt Q9BTV4); assay: affinity purification with mass spectrometry; A549 cells stably expressing vector, HA-Flag-TMEM43 WT or S358L (triplicates); lysis in 150mM NaCl, 50mM Tris-HCl (pH 7.4), 1mM EDTA, 1% Triton X-100; anti-FLAG M2 gel, elution with 3XFlag peptide, then anti-HA gel; label-free quantitative LC-MS/MS
T1 sequence: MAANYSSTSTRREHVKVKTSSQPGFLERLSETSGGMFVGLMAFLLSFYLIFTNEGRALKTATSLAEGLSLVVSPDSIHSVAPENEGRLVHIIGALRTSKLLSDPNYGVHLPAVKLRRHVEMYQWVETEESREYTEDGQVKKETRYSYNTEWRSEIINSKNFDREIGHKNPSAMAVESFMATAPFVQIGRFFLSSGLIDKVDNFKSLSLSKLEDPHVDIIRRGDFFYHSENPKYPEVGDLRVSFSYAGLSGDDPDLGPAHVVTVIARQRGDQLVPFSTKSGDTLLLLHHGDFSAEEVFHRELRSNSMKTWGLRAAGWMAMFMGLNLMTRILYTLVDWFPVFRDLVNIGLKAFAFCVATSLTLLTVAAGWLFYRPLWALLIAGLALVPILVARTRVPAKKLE

[2] = target: T2, 3xHA-Turbo-TMEM43 (TurboID fusion of wild-type TMEM43) (UniProt Q9BTV4); assay: proximity labelling; H9c2 cells transfected with 3xHA-Turbo-TMEM43 or its S358L mutant; 50μM biotin for 30 min; RIPA lysate on streptavidin magnetic beads; Western blotting of biotinylated proteins
T2 sequence: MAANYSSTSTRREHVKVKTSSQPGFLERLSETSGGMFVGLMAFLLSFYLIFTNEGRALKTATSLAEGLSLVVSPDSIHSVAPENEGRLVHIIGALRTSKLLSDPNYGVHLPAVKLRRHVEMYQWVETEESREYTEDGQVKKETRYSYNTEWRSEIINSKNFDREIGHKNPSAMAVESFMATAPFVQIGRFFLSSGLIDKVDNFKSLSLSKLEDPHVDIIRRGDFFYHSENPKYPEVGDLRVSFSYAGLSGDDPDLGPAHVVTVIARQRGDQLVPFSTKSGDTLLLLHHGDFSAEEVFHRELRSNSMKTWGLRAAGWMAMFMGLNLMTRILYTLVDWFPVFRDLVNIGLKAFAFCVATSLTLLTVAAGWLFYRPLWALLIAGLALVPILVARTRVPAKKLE

[3] = target: T3, 3xHA-Turbo-TMEM43 S358L (TurboID fusion of the TMEM43 S358L mutant) (UniProt Q9BTV4); assay: as above
T3 sequence: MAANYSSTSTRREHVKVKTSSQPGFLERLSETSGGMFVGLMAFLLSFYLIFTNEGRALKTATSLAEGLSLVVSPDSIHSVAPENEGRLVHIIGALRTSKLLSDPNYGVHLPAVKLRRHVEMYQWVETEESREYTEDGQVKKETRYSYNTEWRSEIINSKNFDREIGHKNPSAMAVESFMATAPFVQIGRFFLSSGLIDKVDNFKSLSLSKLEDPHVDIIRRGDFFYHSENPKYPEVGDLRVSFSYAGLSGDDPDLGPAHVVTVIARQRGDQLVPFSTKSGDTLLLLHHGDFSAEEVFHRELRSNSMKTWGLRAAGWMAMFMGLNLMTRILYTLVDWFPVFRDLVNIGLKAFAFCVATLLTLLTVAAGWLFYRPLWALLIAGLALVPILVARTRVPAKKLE

Molecule: Caveolin 1 (CAV1), endogenous in A549 cells (from UniProt Q03135 1-178)
binding [1]: binds

Molecule: Sarcoplasmic/Endoplasmic Reticulum Calcium ATPase 2 (SERCA2 or ATP2A2), endogenous in H9c2 cells (from UniProt P11507 1-1043)
binding [2]: binds
binding [3]: binds

B1: Emerin (EMD), endogenous in H9c2 cells (protein, UniProt Q63190 1-260)
chain: MDDYAVLSDTELAAVLRQYNIPHGPILGSTRKLYEKKIFEYETQRRRLSPPSSSSSSFSYRFSDLDSASVDSDMYDLPKKEDALLYQSKDYNDDYYEESYLTTRTYGEPESVGMSKSFRRPGTSLVDADDTFHHQVRDDIFSSSEEEGKDRERPIYGRDSAYQSIAEYRPISNVSRSSLGLSYYPRSSTSSVSSSSSSPSSWLTRRAIRPEKQAPTAALGQDRQVPLWGQLLLFLAFATFLLFVYYSIQAQEGNPFWMDP
binding [2]: binds
binding [3]: binds

The remaining lines, values ahead:

binding [1]: binds
Molecule: Apolipoprotein B (APOB), endogenous in A549 cells (from UniProt P04114 28-4563)

binding [2]: binds
binding [3]: binds
Molecule: Lamin A/C (LMNA), endogenous in H9c2 cells (from UniProt P48679 1-647)

binding [1]: binds
Molecule: Voltage-dependent anion-selective channel protein 1 (VDAC1), endogenous in A549 cells (from UniProt P21796 1-283)
